{
  "source": "PubChem BioAssay AID308",
  "about": "(DTP/NCI, 2004)",
  "tested_on": "BDF1 mice, L1210 6-MP/6-TG resistant leukemia ip, survival T/C",
  "test": "NCI In Vivo Anticancer Drug Screen. Data for tumor model L1210 Leukemia resistant to 6-MP and 6-Thioguanine; NSC 755, NSC 752 (intraperitoneal) in B6D2F1 (BDF1) mice",
  "settings": "T/C endpoint: mean survival time, higher T/C = longer survival",
  "protocol": "The antitumor activity of compounds was measured in mice bearing transplantable tumors. Survival or tumor size were measured and the results are expressed as the measurement made in the treated group (T) divided by the measurement made in the vehicle treated control group (C). The tumor model used in this assay is L1210 Leukemia resistant to 6-MP and 6-Thioguanine; NSC 755, NSC 752 (intraperitoneal) in B6D2F1 (BDF1) mice",
  "key": {"[1]": {"settings": "dose: 6.0 mg/kg/injection, schedule: Q01DX001 (ip), vehicle: carboxymethylcellulose (CMC)"}, "[2]": {"settings": "dose: 8.0 mg/kg/injection, schedule: Q01DX001 (ip), vehicle: carboxymethylcellulose (CMC)"}, "[3]": {"settings": "dose: 10.0 mg/kg/injection, schedule: Q01DX001 (ip), vehicle: carboxymethylcellulose (CMC)"}, "[4]": {"settings": "dose: 50.0 mg/kg/injection, schedule: Q01DX Z (ip), vehicle: carboxymethylcellulose (CMC)"}, "[5]": {"settings": "dose: 75.0 mg/kg/injection, schedule: Q01DX Z (ip), vehicle: carboxymethylcellulose (CMC)"}, "[6]": {"settings": "dose: 100.0 mg/kg/injection, schedule: Q01DX Z (ip), vehicle: carboxymethylcellulose (CMC)"}, "[7]": {"settings": "dose: 25.0 mg/kg/injection, schedule: Q01DX Z (ip), vehicle: carboxymethylcellulose (CMC)"}},
  "note": "The list shows only some results of the screen, not a fair sample: it is rich in T/C values a quarter to a half above the control, in often repeated tests (any T/C) and in doses without a T/C. Other doses and runs of a compound stand elsewhere. T/C gives the treated animals as a percentage of the vehicle group. Some entries give survivors of the animals treated and no T/C: the source files T/C as zero there, which appears to mark a toxic dose or a test without result, not a measured value. Some survivor counts are full or nearly so, which does not show that the dose was tolerated: the source hardly ever lists a survival T/C far under the control, and the zero likely stands for such cases as well. Counts of survivors are from the toxicity check (mostly the fifth day) where no day follows; animals may have died later. Schedule codes are those of the source, read here as Q, the interval in days (D) or hours (H), X, the number of doses. Some entries hold several experiments; the values are given in rising order. Some schedule codes hold Z or #, which are not explained here. Where survival is the endpoint, this PubChem deposit counts one and a half times the control or more as active, and values a quarter to a half above the control carry no call in these data; other NCI protocols may use other cut-offs. Some T/C values carry the count of animals alive at the toxicity check (mostly the fifth day); without a count, all were alive then.",
  "data": [
    {"molecule": "CCn1cnc2c(SC3CCCC3)ncnc21", "values": [
      {"measurement": "survivor count", "setting": "dose: 375.0 mg/kg/injection, schedule: Q01DX Z (ip), vehicle: carboxymethylcellulose (CMC)", "value": "6 of 6"},
      {"measurement": "survivor count", "setting": "dose: 500.0 mg/kg/injection, schedule: Q01DX Z (ip), vehicle: carboxymethylcellulose (CMC)", "value": "6 of 6"}
    ]},
    {"molecule": "COc1cc([C@@H]2c3cc4c(cc3[C@H](O)[C@H]3COC(=O)[C@@H]23)OCO4)cc(OC)c1OC", "values": [
      {"measurement": "T/C", "setting": "dose: 20.0 mg/kg/injection, schedule: Q01DX Z (ip), vehicle: carboxymethylcellulose (CMC)", "value": "141 % of control"},
      {"measurement": "survivor count", "setting": "dose: 80.0 mg/kg/injection, schedule: Q01DX Z (ip), vehicle: carboxymethylcellulose (CMC)", "value": "6 of 6"}
    ]},
    {"molecule": "Nc1nc(SCc2ccccc2)c2ncn(C3OC(CO)CC3O)c2n1", "note": "(stereo not given)", "values": [
      {"measurement": "survivor count", "setting": "dose: 300.0 mg/kg/injection, schedule: Q01DX009 (ip), vehicle: other", "value": "6 of 6"}
    ]},
    {"molecule": "Nc1ncnc2c1ccn2C1OC(CO)C(O)C1O", "note": "(stereo not given)", "values": [
      {"measurement": "T/C", "setting": "dose: 4.0 mg/kg/injection, schedule: Q01DX001 (ip), vehicle: carboxymethylcellulose (CMC)", "value": "104, 116, 118, 119 % of control"},
      {"measurement": "survivor count", "setting": "dose: 4.0 mg/kg/injection, schedule: Q01DX Z (ip), vehicle: carboxymethylcellulose (CMC)", "value": "6 of 6"},
      {"measurement": "T/C", "setting": "[1]", "value": "94 [9 of 10 alive], 114, 129 % of control"},
      {"measurement": "survivor count", "setting": "[1]", "value": "10 of 10"},
      {"measurement": "T/C", "setting": "[2]", "value": "110 and 130 % of control"},
      {"measurement": "survivor count", "setting": "[2]", "value": "9 of 10"},
      {"measurement": "T/C", "setting": "[3]", "value": "103 % of control"},
      {"measurement": "survivor count", "setting": "[3]", "value": "5 of 10, 9 of 10, 10 of 10"},
      {"measurement": "survivor count", "setting": "dose: 12.0 mg/kg/injection, schedule: Q01DX001 (ip), vehicle: carboxymethylcellulose (CMC)", "value": "6 of 10, 7 of 10, 8 of 10"}
    ]},
    {"molecule": "COCCCNS(=O)(=O)c1ncnc2nc[nH]c12", "values": [
      {"measurement": "survivor count", "setting": "[4]", "value": "6 of 6"},
      {"measurement": "survivor count", "setting": "dose: 200.0 mg/kg/injection, schedule: Q01DX Z (ip), vehicle: carboxymethylcellulose (CMC)", "value": "6 of 6"}
    ]},
    {"molecule": "C=CCSc1ncnc2c1ncn2C1OC(CO)C(O)C1O", "note": "(stereo not given)", "values": [
      {"measurement": "survivor count", "setting": "dose: 400.0 mg/kg/injection, schedule: Q01DX015 (ip), vehicle: saline", "value": "5 of 6"}
    ]},
    {"molecule": "c1ccc(CNc2ncnc3[nH]ncc23)cc1", "values": [
      {"measurement": "survivor count", "setting": "[5]", "value": "5 of 6"},
      {"measurement": "survivor count", "setting": "[6]", "value": "2 of 6"}
    ]},
    {"molecule": "CCCNc1ncnc2[nH]ncc12", "values": [
      {"measurement": "survivor count", "setting": "dose: 50.0 mg/kg/injection, schedule: Q01DX Z (ip), vehicle: saline", "value": "6 of 6"},
      {"measurement": "survivor count", "setting": "dose: 75.0 mg/kg/injection, schedule: Q01DX Z (ip), vehicle: saline", "value": "6 of 6"},
      {"measurement": "survivor count", "setting": "dose: 100.0 mg/kg/injection, schedule: Q01DX Z (ip), vehicle: saline", "value": "0 of 6"}
    ]},
    {"molecule": "S=P(N1CCOCC1)(N1CC1)N1CC1", "values": [
      {"measurement": "T/C", "setting": "[7]", "value": "128 % of control"},
      {"measurement": "survivor count", "setting": "[7]", "value": "6 of 6"},
      {"measurement": "survivor count", "setting": "[4]", "value": "5 of 6"},
      {"measurement": "survivor count", "setting": "[5]", "value": "5 of 6"},
      {"measurement": "survivor count", "setting": "[6]", "value": "3 of 6"}
    ]},
    {"molecule": "OCn1cnc2c(SC3CCCC3)ncnc21", "values": [
      {"measurement": "survivor count", "setting": "dose: 6.25 mg/kg/injection, schedule: Q01DX009 (ip), vehicle: other", "value": "6 of 6"},
      {"measurement": "survivor count", "setting": "dose: 25.0 mg/kg/injection, schedule: Q01DX009 (ip), vehicle: other", "value": "6 of 6"},
      {"measurement": "survivor count", "setting": "dose: 100.0 mg/kg/injection, schedule: Q01DX009 (ip), vehicle: other", "value": "9 of 9"},
      {"measurement": "survivor count", "setting": "dose: 200.0 mg/kg/injection, schedule: Q01DX009 (ip), vehicle: other", "value": "8 of 10"},
      {"measurement": "survivor count", "setting": "dose: 400.0 mg/kg/injection, schedule: Q01DX009 (ip), vehicle: other", "value": "0 of 10"}
    ]},
    {"molecule": "Nc1nc2n[nH]nc2c(=O)[nH]1", "values": [
      {"measurement": "survivor count", "setting": "dose: 250.0 mg/kg/injection, schedule: Q01DX Z (ip), vehicle: water", "value": "6 of 6"},
      {"measurement": "survivor count", "setting": "dose: 300.0 mg/kg/injection, schedule: Q01DX Z (ip), vehicle: water", "value": "4 of 6"},
      {"measurement": "survivor count", "setting": "dose: 350.0 mg/kg/injection, schedule: Q01DX Z (ip), vehicle: water", "value": "5 of 6"}
    ]}
  ]
}
